The values that follow come from PMC4667195 (Scientific Reports, 2015).

HELM strings list residues between dots; [ac] is acetyl, [am] amide, other brackets name non-standard units.

The series can be described thus: general procedure: Fmoc solid-phase peptide synthesis; Novasyn TGR; HBTU/N,N-diisopropylethylamine. Particulars: conjugation step, UV 220 nm.

Take “PEPTIDE1{[pGlu].L.Y.E.N.K.P.R.R.P.Y.I.L.K.K.[PEG12].C.[am]}|PEPTIDE2{[pGlu].L.Y.E.N.K.P.R.R.P.Y.I.L}|PEPTIDE3{[pGlu].L.Y.E.N.K.P.R.R.P.Y.I.L.K}|PEPTIDE4{[pGlu].L.Y.E.N.K.P.R.R.P.Y.I.L}|CHEM1{[SuccPr-2'-PTX]}$PEPTIDE1,PEPTIDE2,14:R3-13:R2|PEPTIDE1,PEPTIDE3,15:R3-14:R2|PEPTIDE3,PEPTIDE4,14:R3-13:R2|PEPTIDE1,CHEM1,17:R3-1:R1$$$V2.0”: the “final HPLC purity” value is recorded as “more than 90%”.
